Literature values in patent US11339442B2, “Methods of detecting insulator dysfunction and oncogene activation for screening, diagnosis and treatment of patients in need thereof” (THE GENERAL HOSPITAL CORPORATION, priority 2015, dated 2022).

System: cell proliferation
Conditions: cited from earlier work

SMILES: O=C(CCCCCCC(=O)Nc1ccccc1)NO [SAHA, suberanilohydroxamic acid]
- concentrations inhibiting cell proliferation: nanomolar concentrations
